From PubChem BioAssay AID485314 (National Center for Advancing Translational Sciences (NCATS), 2010)
Among all 340,000 compounds or so, about 4,500 (1.3%) were called active. The shares of active, inactive and inconclusive entries below differ from those in the screen. Calls follow the shape of the dose curve; as a rule, active = well fitted inhibition curve with a large enough effect; inconclusive = small, poorly fitted or top-dose-only effect, or another doubt; inactive = no such curve, though single readings can be large or run the other way. Where the call is inconclusive, the potency comes from a doubtful curve fit.

The compounds below were run against DNA polymerase beta (Homo sapiens) (UniProt P06746) (assay: qHTS Assay for Inhibitors of DNA Polymerase Beta). Settings: Pol beta primer extension/strand displacement, fluorescence kinetic; activity change, negative = inhibition: at 114 µM (top of the series).
In short: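 Pol beta (10 nM) was preincubated with compound for 15 min at room temperature. The reaction was then started with 50 nM substrate and read immediately and after a further 10 min at room temperature.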
% is scaled to controls: 0 for no effect and ±100 for the full control effect; potency is read from the fitted curve at half-maximal effect.

Potency, active:
O=C(COC(=O)CNC(=O)c1ccc(-c2ccccc2)cc1)NCc1ccco1 8.91 µM, O=c1nc2s/c(=C\c3ccco3)c(=O)n2nc1Cc1ccc(F)cc1 2.82 µM, COC(=O)c1ccccc1NC(=O)c1noc2c1CCC2 10 µM, COc1cc(/C=N/NC(=O)c2cc(-c3ccco3)nc3ccccc23)cc(OC)c1O 50.1 µM, Oc1ccc(N=C/C=C/c2ccc(Br)cc2)cc1-c1nc2ccccc2s1 12.6 µM, O=C(Cc1nnc(NC(=O)c2ccccc2)s1)N/N=C\c1ccc(O)c(O)c1 7.08 µM, O=C1CCCC2=C1C(c1ccco1)Nc1ccc3ccccc3c12 (centres undefined) 6.31 µM, COc1ccc2cc3c(N)nn(C(=O)c4ccc(Cl)c([N+](=O)[O-])c4)c3nc2c1 1.58 µM

Potency, inconclusive:
COC1=C/C(=C/c2c(N)n3nc(CC(=O)N4CCOCC4)sc3nc2=O)C=CC1=O 50.1 µM [inhibitor, single point], CCn1ncc(Br)c1C(=O)Nc1ccn(C23CC4CC(CC(C4)C2)C3)n1 14.1 µM [inhibitor, partial curve], Cc1cc(Br)cc(Cl)c1OC(=O)c1cnccn1 44.7 µM [inhibitor, partial curve], Cc1nc(-c2ccc(S(=O)(=O)Nc3cc(Cl)ccc3C)cc2)co1 89.1 µM [inhibitor, single point], N#CCSc1ncnc2sc3c(c12)CCC3 1.12 µM [inhibitor, full curve, poor fit], COc1ccc(N2CCN(C(=O)CSc3nc(-c4ccc(C(C)C)cc4)no3)CC2)cc1 15.8 µM [inhibitor, single point], CCOc1cccc(C2C(C(=O)c3ccc(C)o3)=C(O)C(=O)N2Cc2ccccc2)c1 (centres undefined) 10 µM [inhibitor, full curve, poor fit], COc1ccc(S(=O)(=O)NCCc2ccccc2)cc1 100 µM [inhibitor, single point], COc1ccc(CNC(=O)Cc2c(C)c3cc4c(C)coc4cc3oc2=O)cc1OC 50.1 µM [inhibitor, partial curve], Cc1cccc(-c2cc3c(N=O)c4ccccc4c-3n[nH]2)c1 14.1 µM [inhibitor, partial curve], Cc1cc(NC(=O)CCC(=O)N(CC(=O)NC2CCCC2)Cc2cccs2)no1 89.1 µM [inhibitor, single point], COC(=O)C1=CNC=C(C(=O)OC)C1c1ccc(Cl)cc1 25.1 µM [inhibitor, partial curve], Cc1ccc(S(=O)(=O)N2CCCC2C(=O)NCCc2ccccc2)cc1 (centres undefined) 100 µM [inhibitor, single point], Cc1cc(-c2nn(-c3ccccc3F)cc2CN(C)CC(O)CO)c(C)s1 (centres undefined) 89.1 µM [inhibitor, single point], CC(C)c1ccc(NS(=O)(=O)c2ccc(-n3cccn3)cc2)cc1 12.6 µM [inhibitor, single point], COc1ccccc1-n1c(=S)sc2c(=O)n(Cc3ccco3)c(SC)nc21 89.1 µM [inhibitor, single point], CCOC(=O)c1ccc(CSc2nncn2N)o1 7.94 µM [inhibitor, full curve, poor fit], Cc1ccc(C)c(S(=O)(=O)c2c(N)n(/N=C/c3ccco3)c3nc4ccccc4nc23)c1 89.1 µM [inhibitor, single point], Cc1ccc2c(Cl)cc(Cl)c(OCC(=O)NC(=O)NCc3ccco3)c2n1 35.5 µM [inhibitor, partial curve], CCc1ccc2[nH]cc(C(=O)N3CCCCCC3)c(=O)c2c1 0.398 µM [inhibitor, full curve, poor fit], COc1ccc(N2CCN(CCCNC(=O)c3cc(Nc4ccccc4OC)nc4ccccc34)CC2)cc1 89.1 µM [inhibitor, single point], COc1ccc(NC(=O)NNS(=O)(=O)c2ccc(Br)cc2)cc1 3.16 µM [inhibitor, single point], COc1cccc2c1C(=O)O/C2=C/c1ccc2c(c1)OCO2 35.5 µM [inhibitor, partial curve], Cc1ccc(OCC(=O)Nc2ccc(S(=O)(=O)N(C)C3CCN(C)CC3)cc2)c(C)c1 35.5 µM [inhibitor, full curve, poor fit], Cc1cc(C)cc(OCC(=O)N(Cc2ccc(Cl)cc2)CC2CCCO2)c1 (centres undefined) 79.4 µM [inhibitor, partial curve, poor fit], O=C(Nc1cccc(-c2cn3cccnc3n2)c1)Nc1ccccc1F 8.91 µM [inhibitor, full curve], Cc1ccc(-n2nc(C(=O)Nc3ccc(C)c(F)c3)c(=O)n(C)c2=O)cc1 89.1 µM [inhibitor, single point]

Activity change, negative = inhibition, inactive:
O=C(C#Cc1ccccc1)c1cccc([N+](=O)[O-])c1 -18.7%, COc1ccc(C(=O)NCc2nnc(SC)n2C2CCCCC2)cc1 -0.437%, COc1ccc2c(CNCCc3ccc(SC)cc3)c(C(=O)O)n(Cc3ccc(F)cc3)c2c1 1.82%, CCc1ccc(Nc2n[n+](-c3ccccc3)c(-c3cc(OC)c(OC)cc3Br)s2)cc1 16.6%, Cc1ccc(C)c(N2CCN(c3ccc(N4C(=O)COCC4=O)cc3[N+](=O)[O-])CC2)c1 -14.5%, CC(C(=O)N(C)C1CCS(=O)(=O)C1)N1C(=O)/C(=C/c2ccc(F)cc2)SC1=S (centres undefined) 21.3%, COc1cccc(C2C3=C(CC(C)(C)CC3=O)Nc3cc(OC)c(OC)cc32)c1 (centres undefined) -1.55%, OC1(c2ccc(Cl)cc2)CCN(Cc2c[nH]c3ccccc23)CC1 6.06% [at 57.1 µM]

Activity change, negative = inhibition, inconclusive:
COc1ccc(/C=N/NC(=O)c2ccc3c(c2)OCO3)cc1 -52.8% [inhibitor]
